Screening data, single-dose tests

Protein sequences, listed by entry. Tags and fused reporters are not part of them.
UniProt P9WPC5, whole entry: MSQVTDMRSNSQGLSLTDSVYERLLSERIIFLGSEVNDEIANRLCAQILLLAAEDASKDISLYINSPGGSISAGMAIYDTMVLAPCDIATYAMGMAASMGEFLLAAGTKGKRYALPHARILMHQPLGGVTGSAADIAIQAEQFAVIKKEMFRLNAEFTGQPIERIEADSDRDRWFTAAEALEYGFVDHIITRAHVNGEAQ
UniProt P9WPC3, whole entry partner: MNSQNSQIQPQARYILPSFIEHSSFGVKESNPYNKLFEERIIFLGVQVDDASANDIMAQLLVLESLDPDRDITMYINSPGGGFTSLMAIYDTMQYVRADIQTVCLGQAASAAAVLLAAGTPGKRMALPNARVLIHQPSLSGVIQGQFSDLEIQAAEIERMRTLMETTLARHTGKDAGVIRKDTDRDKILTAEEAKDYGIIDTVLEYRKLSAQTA
UniProt P9WFT3, whole entry: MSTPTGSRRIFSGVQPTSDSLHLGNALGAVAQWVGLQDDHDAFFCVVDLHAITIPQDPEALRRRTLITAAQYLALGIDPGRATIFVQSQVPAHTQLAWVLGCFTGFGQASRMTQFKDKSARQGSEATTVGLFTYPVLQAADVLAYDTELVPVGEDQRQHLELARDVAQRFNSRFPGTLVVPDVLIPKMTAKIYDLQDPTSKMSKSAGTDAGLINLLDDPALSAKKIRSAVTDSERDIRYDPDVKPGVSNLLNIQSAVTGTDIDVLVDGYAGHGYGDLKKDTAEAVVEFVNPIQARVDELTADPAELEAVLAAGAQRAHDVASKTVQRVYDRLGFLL

Measurements from “University of Dundee, Small-Polar-MMV Screening Library” (2021), ChEMBL document CHEMBL3988442.

ClpP1P2: 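Protease assay of ClpP1P2, read by the AMC dye that it sets free. Target: ClpP1P2, Mycobacterium tuberculosis (UniProt P9WPC5 and UniProt P9WPC3). Compounds at 50 µM. Direction is inferred from only a few compounds that gave an IC50; most scored high, so higher reads as stronger inhibition. Most other retested compounds had strongly negative values. Size under these conditions: about 69,000 compounds, about 10 of them at 50% or above in at least one test.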
MtTrpRS: 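Tryptophan-tRNA ligase, Mycobacterium tuberculosis (UniProt P9WFT3). Enzyme assay of tryptophanyl-tRNA synthetase; the read-out is not stated. Tested at 10 µM. Higher most likely means stronger inhibition; the record gives no direction and few retests gave an IC50. Size under these conditions: about 65,000 compounds, about 64 of them at 50% or above in at least one test.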

Each number is a percent effect as filed. The controls that fix the scale are not given in the record; negative values are as filed. The compounds are a random part of those screened. A dash means the value is not listed here; it may have been measured.

SMILES	ClpP1P2	MtTrpRS
CC(Cc1ccco1)NC(=O)Nc1ccc(N2CCCC2)nc1 (configuration not stated)	-116.5%	-2.912%
O=C(NC[C@H]1OC[C@@H](NC2CCCCC2)[C@@H]1O)c1cccs1	-12.98%	-2.636%
CC(c1ccc(F)cc1)N1CCN(Cc2nccn2C)CC1 (configuration not stated)	-24.91%	-5.062%
O=C(NCCCNc1ccc(C(F)(F)F)cn1)c1ccc(F)cc1F	-43.3%	-1.379%
CC1=C(C(=O)NCc2cccnc2-n2cnc3ccccc32)OCCO1	-3.577%	-0.972%
COc1ccc(CC(=O)N2C[C@H]3CN(Cc4ccccn4)C[C@H]3C2)cc1	-3.432%	-6.686%
CCCS(=O)(=O)N1C[C@@H]2CN(Cc3cccs3)CCO[C@@H]2C1	7.993%	2.81%
COc1ccc(CNc2nncs2)cc1F	-7.874%	2.259%
CC(SCC(=O)NC(N)=O)c1ccccc1F (configuration not stated)	-0.498%	-6.317%
CC(NC(=O)c1ccc(C(N)=O)cc1)c1cccc(N2CCOC2=O)c1 (configuration not stated)	-3.941%	2.687%
CN(C)CC(=O)N1CCN(c2cc(N3CCCC3CO)ncn2)CC1 (configuration not stated)	-9.055%	-4.397%
CCN1CC[C@]2(CN(C(=O)C3CCOCC3)C[C@H]2c2ccccc2)C1=O	3.627%	0.7757%
CC(C)(C)OCC1CN(Cc2cccs2)S(=O)(=O)c2cnccc2O1 (configuration not stated)	1.815%	-
O=C(c1ncn2c1CNS(=O)(=O)c1ccccc1-2)N1CCCCC1	-5.578%	-5.148%
CN(C)C(=O)C1CCCN1C(=O)c1ccc(Cn2ccnc2)o1 (configuration not stated)	-5.354%	2.285%
Cc1ccc(F)c(N2CCCC(Nc3nccn4cnnc34)C2=O)c1 (configuration not stated)	-4.134%	5.939%
CC(=O)N1CCC(C)(c2nc(C)no2)CC1	-10.95%	2.378%
COc1ccc(C(=O)NS(=O)(=O)c2cncc(Br)c2)cc1OC	-5.245%	-1.625%
CCC1c2cccn2CCN1C(=O)c1cc(OC)nc(OC)n1 (configuration not stated)	8.333%	-1.146%
Cc1cc(CN2CCCC2c2c(C)nn(C)c2Cl)no1 (configuration not stated)	5.591%	-3.606%
COC(=O)N1CCCN(Cn2nc(C)c(Br)c2C)CC1	0.626%	-1.175%
Cc1ccc(C(=O)NCC2CCCCO2)c(=O)[nH]1 (configuration not stated)	4.311%	2.918%
O=C(c1cnn2c1OCCC2)N1CCN(C/C=C/c2ccccc2)CC1	-8.704%	5.402%
CCn1cnnc1C1CCN(C(=O)COc2ccc(Cl)cc2)CC1	2.406%	1.649%
CC(=O)N1CCC(Cc2cccc(-c3ccnn3C)n2)CC1	-11.51%	-5.409%
Cc1ccc(S(=O)(=O)N2CCn3nc(C)nc3C2)c(Cl)c1	-18.88%	0.55%
CS(=O)(=O)N[C@@H]1CCO[C@]2(CCN(C(=O)c3cscn3)C2)C1	-7.621%	0.3127%
CS(=O)(=O)N1CCC[C@]2(C[C@@H](Oc3ncccc3F)CO2)C1	8.541%	-2.205%
COc1ccccc1C1(CNCc2ccc(C#N)cc2)CCOCC1	10.35%	-1.232%
O=C(CN1CCC(c2ccnn2CCO)CC1)NC1CCCC1	-6.773%	-9.742%
Cc1cccc(N(CCC(N)=O)CC(=O)NC2CCCC2)c1	-6.995%	0.8974%
CC(C)CN1CCCC1c1ccc(C(=O)Nc2ccc3[nH]nnc3c2)s1 (configuration not stated)	-11.92%	-0.4421%
OCCC1CN(c2nc(-c3cccnc3)nc3c2CCNCC3)CCO1 (configuration not stated)	-1.78%	0.1347%
Cc1cnn(CC2CCCN2Cc2nccn2CC(F)(F)F)c1 (configuration not stated)	-21.21%	1.42%
Cc1nc(C)n(C2CCCN(C(=O)c3csnn3)C2)n1 (configuration not stated)	19.23%	-0.8607%
CN(C)C(=O)Cn1cnc2c(Br)cccc2c1=O	5.801%	-2.352%
O=C(c1cc(Cl)cc(Cl)c1)N1CCN(c2nccs2)CC1	5.771%	-0.9266%
COc1ccc(CN[C@@H]2CO[C@H](CNC(=O)N3CCOCC3)[C@H]2O)cc1	8.632%	9.636%
Cc1oc(-c2ccco2)nc1CC(=O)N1CCC(CCO)C1 (configuration not stated)	-0.878%	-0.4068%
Cc1nccn1CCCNC(=O)C1CCCCN1Cc1ccncc1 (configuration not stated)	5.204%	0.516%
Cc1cc(OCC(O)c2nc3c([nH]2)CC(C)(C)CNC3=O)ccc1Cl (configuration not stated)	-6.682%	2.572%
COCCN1CCCC12CCCN(c1ncccn1)C2 (configuration not stated)	-8.619%	2.789%
O=C(CCCn1cncn1)N1CCC2(CCCNC2=O)C1 (configuration not stated)	-2.074%	3.159%
COCCN(Cc1ccc(F)cc1C#N)CC(F)(F)F	-4.158%	6.12%
COCCN(CC(F)F)c1cc(C(F)(F)F)nc2ncnn12	-9.6%	-1.089%
CN(Cc1ccco1)C(=O)c1cccc(N2CCCC2=O)c1	11.74%	-7.497%
O=C(c1ccncc1)N1CCc2ncnc(C3CCOC3)c2CC1 (configuration not stated)	-3.06%	-4.776%
Cc1c2c(C(F)F)cc(SCC(=O)O)nc2nn1C	-11.22%	-
CC(C)Nc1cc(N2CCC(n3cc(C4CCCC4)nn3)CC2)ncn1	-16.76%	2.452%
CC(C)CN(CC(=O)O)C(=O)c1ccc(F)cc1	10.29%	1.447%
CC(C)(C)OC(=O)N1CCN(C(=O)c2sccc2C2CC2)CC1	-0.6565%	-1.852%
COc1ccccc1S(=O)(=O)N1CCN(C)[C@@H]2CS(=O)(=O)C[C@@H]21	-5.161%	1.235%
Cc1cn2c(n1)CCC(NC(=O)c1csc(C(C)C)n1)C2 (configuration not stated)	-24.64%	-5.768%
Cc1ncsc1C(=O)N1CC[C@@H]2[C@@H](CC1)OCCN2c1cccnc1	2.513%	-0.2114%
CSCCC(=O)N1CCCC(n2ccnc2)C1 (configuration not stated)	-17.58%	-3.805%
Cc1cc(=O)c(C(=O)Nc2cccc(CCN3CCCC3)c2)c[nH]1	-4.31%	-1.65%
CC(C)[C@@H]1CN(Cc2ccccc2C#N)C[C@H]1NC(=O)N(C)C	-3.888%	0.9132%
CC1CCN(S(=O)(=O)N2C[C@H](c3ccccc3)[C@@H](N)C2)CC1	-7.152%	-2.755%
CN(C)c1ccc(C(=O)Nc2ccn(CCc3ccncc3)n2)cc1	-4.927%	3.81%
Cc1cc(F)ccc1N1CCCC(NC(=O)CCc2ccncc2)C1 (configuration not stated)	-5.161%	3.52%
Cc1ccc(C)c(CN(C)Cc2nnc3ccccn23)c1	-9.157%	0.3119%
CCC(=O)NCc1cc(C2CC2)n(C2CCCC2)n1	-4.063%	6.611%
NC(=O)c1cccc(CNC/C=C/c2ccccc2)c1	5.737%	-2.999%
CCn1ccnc1CN1CCCN(C(=O)c2csc(C)n2)CC1	-49.44%	-0.000005%
O=C1CCCCN1CCc1nc(C2(c3ccc(F)cc3)CCOC2)no1 (configuration not stated)	9.85%	0.8163%
Cc1nc(CN(C)C2CCN(CC3CCOCC3)C2)no1 (configuration not stated)	-28.86%	-3.008%
CCc1nnc(CNCC2CCN(CC(O)c3ccccc3)CC2)o1 (configuration not stated)	16.1%	-3.216%
Cc1cccc(C(=O)N2CC[C@@H]3CN(c4ncccn4)CCO[C@@H]3C2)c1	0.9525%	-1.095%
Cc1ccccc1C(C)N(C)Cc1nc2c(cnn2C)c(=O)[nH]1 (configuration not stated)	-28%	-3.387%

Some entries from above, unchanged:

SMILES,ClpP1P2,MtTrpRS
Cc1nc(C)n(C2CCCN(C(=O)c3csnn3)C2)n1 (configuration not stated),19.23%,-0.8607%
CCCS(=O)(=O)N1C[C@@H]2CN(Cc3cccs3)CCO[C@@H]2C1,7.993%,2.81%
Cc1cn2c(n1)CCC(NC(=O)c1csc(C(C)C)n1)C2 (configuration not stated),-24.64%,-5.768%
CN(C)C(=O)C1CCCN1C(=O)c1ccc(Cn2ccnc2)o1 (configuration not stated),-5.354%,2.285%